PubChem BioAssay AID1224829, NIAID | 2016
Purpose: 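Secondary check of hits that alter LPS-induced p65 translocation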 (follow-up of hits). Cells: mouse RAW264.7 G9 macrophage reporter cells. Reagents: single siRNA against mouse genes, 100 nM. Duration: 2 days of siRNA knock-down, then 40 min of LPS before fixing. Treatment: LPS (Salmonella minnesota R595) at 10 ng/ml. Read-out: 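Imaging of GFP-p65 after 40 min of LPS; nuclear over perinuclear ring intensity ratio, scaled to plate median and non-targeting control wells, given as z-score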. Direction: p65 translocation z-score and gene median z-score, per vendor: higher = more nuclear NF-kappaB p65 after LPS. Call rule: 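An siRNA is called active when the mean z-score of its two replicates is above 2 or below -2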. Meaning of the calls: active = changed p65 translocation (either direction); inactive = no clear change.
In all, the deposit lists about 3,800 reagents; below is a random part of them. 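Calls cover raised and lowered translocation; gene median uses one vendor's three siRNAs; qiagen siRNAs acted more weakly than ambion siRNAs.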 Entries without a mark were called inactive. Reagents against one gene are numbered here.

For Lyrm2 #1, siRNA vendor or control pool ambion single siRNA, the entry reads p65 translocation z-score, replicate mean -0.0549; p65 translocation z-score, replicate 1 = -0.76; p65 translocation z-score, replicate 2 = 0.651; gene median z-score, per vendor -0.764.
With Lyrm2 #2, siRNA vendor or control pool ambion single siRNA the deposit lists p65 translocation z-score, replicate mean -1.2; p65 translocation z-score, replicate 1 = -0.768; p65 translocation z-score, replicate 2 = -1.64; gene median z-score, per vendor -0.764.
Lyrm2 #3, siRNA vendor or control pool ambion single siRNA gave p65 translocation z-score, replicate mean -0.828; p65 translocation z-score, replicate 1 = -0.755; p65 translocation z-score, replicate 2 = -0.901; gene median z-score, per vendor -0.764.
With Lyrm2 #4, siRNA vendor or control pool qiagen single siRNA the deposit lists p65 translocation z-score, replicate mean -0.165; p65 translocation z-score, replicate 1 = -0.622; p65 translocation z-score, replicate 2 = 0.292; gene median z-score, per vendor -0.184.
Lyrm2 #5, siRNA vendor or control pool qiagen single siRNA scored p65 translocation z-score, replicate mean 0.585; p65 translocation z-score, replicate 1 = 0.254; p65 translocation z-score, replicate 2 = 0.916; gene median z-score, per vendor -0.184.
For Lyrm2 #6, siRNA vendor or control pool qiagen single siRNA, the entry reads p65 translocation z-score, replicate mean -4.81 (active); p65 translocation z-score, replicate 1 = -7.59; p65 translocation z-score, replicate 2 = -2.03; gene median z-score, per vendor -0.184.

Active calls (from the list above):
Lyrm2 #6, siRNA vendor or control pool qiagen single siRNA | p65 translocation z-score, replicate mean: -4.81 (active); p65 translocation z-score, replicate 1: -7.59; p65 translocation z-score, replicate 2: -2.03; gene median z-score, per vendor: -0.184

Continued:
With LOC269472 (retired record) #1, siRNA vendor or control pool qiagen single siRNA the deposit lists p65 translocation z-score, replicate mean 1.6; p65 translocation z-score, replicate 1 = 1.01; p65 translocation z-score, replicate 2 = 2.2; gene median z-score, per vendor 1.6.
LOC269472 (retired record) #2, siRNA vendor or control pool qiagen single siRNA showed p65 translocation z-score, replicate mean -1.94; p65 translocation z-score, replicate 1 = -1.81; p65 translocation z-score, replicate 2 = -2.08; gene median z-score, per vendor 1.6.
For LOC269472 (retired record) #3, siRNA vendor or control pool qiagen single siRNA, the values are p65 translocation z-score, replicate mean 4.04 (active); p65 translocation z-score, replicate 1 = 3.22; p65 translocation z-score, replicate 2 = 4.87; gene median z-score, per vendor 1.6.
Fpr1 #1, siRNA vendor or control pool ambion single siRNA gave p65 translocation z-score, replicate mean -0.291; p65 translocation z-score, replicate 1 = 1.06; p65 translocation z-score, replicate 2 = -1.64; gene median z-score, per vendor -1.66.
With Fpr1 #2, siRNA vendor or control pool ambion single siRNA the deposit lists p65 translocation z-score, replicate mean -2.05 (active); p65 translocation z-score, replicate 1 = -1.67; p65 translocation z-score, replicate 2 = -2.42; gene median z-score, per vendor -1.66.
Fpr1 #3, siRNA vendor or control pool ambion single siRNA showed gene median z-score, per vendor -1.66.
Fpr1 #4, siRNA vendor or control pool qiagen single siRNA showed p65 translocation z-score, replicate mean 1.99; p65 translocation z-score, replicate 1 = 2.26; p65 translocation z-score, replicate 2 = 1.72; gene median z-score, per vendor 0.317.
With Fpr1 #5, siRNA vendor or control pool qiagen single siRNA, the entry reads p65 translocation z-score, replicate mean 0.317; p65 translocation z-score, replicate 1 = -0.187; p65 translocation z-score, replicate 2 = 0.821; gene median z-score, per vendor 0.317.
Fpr1 #6, siRNA vendor or control pool qiagen single siRNA scored p65 translocation z-score, replicate mean -1.82; p65 translocation z-score, replicate 1 = -2.38; p65 translocation z-score, replicate 2 = -1.27; gene median z-score, per vendor 0.317.
